Measured values taken from paper PMC12520528.
Results are given in words; binding and its absence hold for the method and conditions named. Binding seen in cells or lysates may run through a third protein. Some results given as binding are weak or reduced against the parent protein; the word gives no strength.

Sequences of proteins named here, by UniProt entry; tags and fusion partners are left off. Residues count along the entry.
UniProt Q03405, residues 23-305: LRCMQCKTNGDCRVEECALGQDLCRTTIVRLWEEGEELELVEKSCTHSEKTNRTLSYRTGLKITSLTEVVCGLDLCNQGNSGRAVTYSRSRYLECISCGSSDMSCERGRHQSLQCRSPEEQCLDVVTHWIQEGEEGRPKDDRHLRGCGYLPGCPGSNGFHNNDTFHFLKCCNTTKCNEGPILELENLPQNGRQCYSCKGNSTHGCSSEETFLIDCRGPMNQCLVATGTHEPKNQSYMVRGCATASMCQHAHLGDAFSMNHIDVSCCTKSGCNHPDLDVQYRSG
UniProt P35579: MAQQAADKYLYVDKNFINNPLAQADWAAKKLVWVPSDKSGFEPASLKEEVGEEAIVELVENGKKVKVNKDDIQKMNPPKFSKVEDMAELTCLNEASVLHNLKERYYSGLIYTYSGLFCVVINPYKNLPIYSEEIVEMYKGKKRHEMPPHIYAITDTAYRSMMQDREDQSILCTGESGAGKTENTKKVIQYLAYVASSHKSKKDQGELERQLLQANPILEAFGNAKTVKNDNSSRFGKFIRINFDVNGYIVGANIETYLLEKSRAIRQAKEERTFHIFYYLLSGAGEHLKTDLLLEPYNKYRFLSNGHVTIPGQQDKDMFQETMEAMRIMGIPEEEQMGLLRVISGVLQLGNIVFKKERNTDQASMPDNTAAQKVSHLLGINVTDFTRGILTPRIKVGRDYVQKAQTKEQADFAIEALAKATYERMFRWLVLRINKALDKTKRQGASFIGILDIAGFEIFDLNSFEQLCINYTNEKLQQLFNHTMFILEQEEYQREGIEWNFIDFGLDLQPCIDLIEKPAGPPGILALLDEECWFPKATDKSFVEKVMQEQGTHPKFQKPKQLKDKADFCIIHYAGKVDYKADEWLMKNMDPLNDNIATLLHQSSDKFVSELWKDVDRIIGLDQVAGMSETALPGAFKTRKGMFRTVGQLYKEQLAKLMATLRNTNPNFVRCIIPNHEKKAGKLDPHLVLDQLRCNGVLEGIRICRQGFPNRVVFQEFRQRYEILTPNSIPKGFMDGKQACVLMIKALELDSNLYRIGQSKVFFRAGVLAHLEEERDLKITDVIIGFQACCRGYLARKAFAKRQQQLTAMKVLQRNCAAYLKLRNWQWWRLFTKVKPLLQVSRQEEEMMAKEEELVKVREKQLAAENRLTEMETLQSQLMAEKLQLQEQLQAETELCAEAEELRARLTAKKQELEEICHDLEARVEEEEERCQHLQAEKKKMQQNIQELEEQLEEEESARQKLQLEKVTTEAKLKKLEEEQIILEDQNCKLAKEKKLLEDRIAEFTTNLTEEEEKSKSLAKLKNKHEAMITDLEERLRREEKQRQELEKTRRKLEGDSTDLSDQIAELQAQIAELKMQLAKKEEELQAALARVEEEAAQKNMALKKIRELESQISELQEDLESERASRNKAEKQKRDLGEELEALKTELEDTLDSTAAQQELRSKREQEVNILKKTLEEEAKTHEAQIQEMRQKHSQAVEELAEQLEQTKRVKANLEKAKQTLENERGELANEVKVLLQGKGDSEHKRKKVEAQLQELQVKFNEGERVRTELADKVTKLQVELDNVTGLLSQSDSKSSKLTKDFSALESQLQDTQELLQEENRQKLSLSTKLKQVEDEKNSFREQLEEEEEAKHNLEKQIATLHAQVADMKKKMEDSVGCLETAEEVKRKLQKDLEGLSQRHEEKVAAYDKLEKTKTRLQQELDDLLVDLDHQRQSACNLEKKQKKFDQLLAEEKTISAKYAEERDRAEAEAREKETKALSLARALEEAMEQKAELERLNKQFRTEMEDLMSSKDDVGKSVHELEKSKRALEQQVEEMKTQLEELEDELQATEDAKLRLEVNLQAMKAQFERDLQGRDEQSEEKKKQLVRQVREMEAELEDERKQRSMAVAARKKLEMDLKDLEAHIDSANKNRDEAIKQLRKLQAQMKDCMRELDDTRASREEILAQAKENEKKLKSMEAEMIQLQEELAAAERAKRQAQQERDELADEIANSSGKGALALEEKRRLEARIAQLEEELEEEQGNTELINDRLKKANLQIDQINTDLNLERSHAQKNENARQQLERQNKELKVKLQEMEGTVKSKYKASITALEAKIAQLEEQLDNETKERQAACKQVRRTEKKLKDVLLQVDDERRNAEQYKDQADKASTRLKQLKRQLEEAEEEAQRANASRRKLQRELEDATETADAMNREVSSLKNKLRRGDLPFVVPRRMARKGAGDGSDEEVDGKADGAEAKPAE

Target: urokinase-type plasminogen activator receptor (PLAUR), endogenous in neutrophils (UniProt Q03405)
Test: co-IP; coimmunoprecipitation in neutrophils; which protein was precipitated is not told in the main text

binding: binds
Substance: myosin heavy chain 9 (MYH9) (from UniProt P35579 1-1960)
